Data as given in PubChem BioAssay AID1259424 (University of Nebraska Medical Center, 2018)
Here is one part, drawn at random, of about 14,000 deposited reagents. 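Higher correlation or smaller distance means closer resemblance to KSR1 loss; control wells, including KSR1 knockdowns, recur on many plates.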 Further read-outs or replicates are left out here. Not stated in the record: the time to read-out.

- Screen: 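Find knockdowns that reproduce the expression shifts seen after KSR1 loss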 (primary screen)
- System: human HCT116 colon cancer cells
- Knock-down reagent: siRNA pool against human genes, 50 nM
- Measurement: 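Log2 levels of six mRNAs (branched-DNA multiplex), adjusted by two reference genes and the non-targeting median, then scored against the average KSR1 knockdown pattern as Pearson r and euclidean distance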
- Scale: mean correlation with KSR1 profile: higher = expression change more like KSR1 knockdown; mean distance from KSR1 profile: higher = expression change less like KSR1 knockdown

AVL9 (AVL9 cell migration associated) showed mean correlation with KSR1 profile -0.148; mean distance from KSR1 profile 2.24.
For GLS (glutaminase), the entry reads mean correlation with KSR1 profile -0.572; mean distance from KSR1 profile 2.87.
For SIRAL2 (SIR2 antiphage like 2), the entry reads mean correlation with KSR1 profile -0.0302; mean distance from KSR1 profile 2.72.
Depletion of CELA2B (chymotrypsin like elastase 2B) came out at: mean correlation with KSR1 profile -0.747; mean distance from KSR1 profile 2.01.
SPATA7 (spermatogenesis associated 7) showed mean correlation with KSR1 profile 0.38; mean distance from KSR1 profile 2.11.
Silencing of PREX2 came out at: mean correlation with KSR1 profile 0.327; mean distance from KSR1 profile 2.77.
After knock-down of MRPL57 (mitochondrial ribosomal protein L57), the record shows mean correlation with KSR1 profile 0.0495; mean distance from KSR1 profile 1.33.
With knock-down of TFPI2 (tissue factor pathway inhibitor 2), the screen gave mean correlation with KSR1 profile -0.31; mean distance from KSR1 profile 3.1.
Silencing of DUT (deoxyuridine triphosphatase) came out at: mean correlation with KSR1 profile -0.299; mean distance from KSR1 profile 1.97.
ZBTB2 (zinc finger and BTB domain containing 2) showed mean correlation with KSR1 profile -0.649; mean distance from KSR1 profile 2.63.
RASA4 (RAS p21 protein activator 4) scored mean correlation with KSR1 profile 0.549; mean distance from KSR1 profile 2.06.
After knock-down of CISD1 (CDGSH iron sulfur domain 1) the results were mean correlation with KSR1 profile 0.302; mean distance from KSR1 profile 1.5.

No new results follow: an excerpt of the list.
AVL9 (AVL9 cell migration associated) | mean correlation with KSR1 profile: -0.148; mean distance from KSR1 profile: 2.24
GLS (glutaminase) | mean correlation with KSR1 profile: -0.572; mean distance from KSR1 profile: 2.87
SIRAL2 (SIR2 antiphage like 2) | mean correlation with KSR1 profile: -0.0302; mean distance from KSR1 profile: 2.72
CELA2B (chymotrypsin like elastase 2B) | mean correlation with KSR1 profile: -0.747; mean distance from KSR1 profile: 2.01

Continued:
CYP51A1 (cytochrome P450 family 51 subfamily A member 1) showed mean correlation with KSR1 profile 0.421; mean distance from KSR1 profile 4.49.
For ACADVL (acyl-CoA dehydrogenase very long chain) the deposit lists mean correlation with KSR1 profile -0.0869; mean distance from KSR1 profile 2.98.
AFF4 (ALF transcription elongation factor 4) gave mean correlation with KSR1 profile 0.258; mean distance from KSR1 profile 1.42.
Silencing of OTUD7B (OTU deubiquitinase 7B) came out at: mean correlation with KSR1 profile -0.342; mean distance from KSR1 profile 2.86.
Knock-down of RNF34 (ring finger protein 34) resulted in: mean correlation with KSR1 profile 0.5; mean distance from KSR1 profile 1.65.
RSL24D1 (ribosomal L24 domain containing 1) showed mean correlation with KSR1 profile -0.167; mean distance from KSR1 profile 2.44.
Against KEAP1 (kelch like ECH associated protein 1), the entry reads mean correlation with KSR1 profile -0.657; mean distance from KSR1 profile 3.19.
After knock-down of PINX1 (PIN2 (TERF1) interacting telomerase inhibitor 1), the screen gave mean correlation with KSR1 profile 0.483; mean distance from KSR1 profile 1.66.
Against SCN5A (sodium voltage-gated channel alpha subunit 5) the deposit lists mean correlation with KSR1 profile -0.422; mean distance from KSR1 profile 2.13.
After knock-down of CLDN7 (claudin 7), the record shows mean correlation with KSR1 profile -0.491; mean distance from KSR1 profile 2.1.
Against DDX19A (DEAD-box helicase 19A), the entry reads mean correlation with KSR1 profile 0.0531; mean distance from KSR1 profile 2.4.
CRTAM (cytotoxic and regulatory T cell molecule) gave mean correlation with KSR1 profile -0.162; mean distance from KSR1 profile 2.31.
Silencing of CGN (cingulin) resulted in: mean correlation with KSR1 profile -0.741; mean distance from KSR1 profile 2.57.
With knock-down of INO80B (INO80 complex subunit B), the screen gave mean correlation with KSR1 profile 0.345; mean distance from KSR1 profile 3.65.
For LRRC8C (leucine rich repeat containing 8 VRAC subunit C), the values are mean correlation with KSR1 profile 0.221; mean distance from KSR1 profile 2.44.
Knock-down of CHRNE (cholinergic receptor nicotinic epsilon subunit) came out at: mean correlation with KSR1 profile 0.248; mean distance from KSR1 profile 2.62.
